The text below walks through data of publication PMC7609059.

Where a chain is given by its changes, count along the chain named. Results are given in words; binding and its absence hold for the method and conditions named. For some of these results: Binding seen in cells or lysates may run through a third protein. Some results given as binding are weak or reduced against the parent protein; the word gives no strength. Where a sequence is shown, tags or fusion partners need not be part of it.

In test [1] the target is T1, GFP-fused Mim2 (S. pombe) (UniProt G2TRP0).
T1 sequence: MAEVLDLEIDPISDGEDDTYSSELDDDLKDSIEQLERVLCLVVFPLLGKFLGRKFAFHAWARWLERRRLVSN
In words: co-IP.

The target in test [2] is T2, GFP-fused Mim1 (S. pombe) (UniProt Q9C1W7).
T2 sequence: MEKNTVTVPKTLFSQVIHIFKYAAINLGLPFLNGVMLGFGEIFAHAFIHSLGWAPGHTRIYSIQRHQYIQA
In words: co-IP.

The target in test [3] is T3, GFP-fused Atg8 (S. pombe) (UniProt O94272).
T3 sequence: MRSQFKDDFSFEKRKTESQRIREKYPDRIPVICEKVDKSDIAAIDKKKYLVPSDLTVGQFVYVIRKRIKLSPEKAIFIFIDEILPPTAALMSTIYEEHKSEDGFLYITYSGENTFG
Description: co-IP.

In test [4] the target is T4, FLAG-tagged Atg43 (full-length) (S. pombe) (UniProt O13709).
T4 sequence: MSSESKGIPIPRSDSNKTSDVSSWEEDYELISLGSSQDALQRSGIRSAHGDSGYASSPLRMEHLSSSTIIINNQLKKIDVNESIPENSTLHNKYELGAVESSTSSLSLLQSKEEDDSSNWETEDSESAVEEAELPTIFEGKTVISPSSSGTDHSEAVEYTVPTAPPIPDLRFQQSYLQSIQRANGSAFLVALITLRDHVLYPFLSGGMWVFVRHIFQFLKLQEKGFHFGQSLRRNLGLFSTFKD
In words: co-IP.

The target in the next test is T5, FLAG-Mim1 (S. pombe) (UniProt Q9C1W7).
T5 sequence: T2 sequence
In words: co-IP.

In test [5] the target is T6, FLAG-tagged Atg43ΔN164 (the 80 C-terminal aa, aa 165-244) (S. pombe) (UniProt O13709).
T6 sequence: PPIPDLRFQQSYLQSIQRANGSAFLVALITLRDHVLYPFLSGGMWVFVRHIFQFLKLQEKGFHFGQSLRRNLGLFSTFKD
In words: co-IP.

Test [6] has as its target T7, FLAG-tagged Atg43ΔC60 (lacking the 60 C-terminal aa) (S. pombe) (UniProt O13709).
T7 sequence: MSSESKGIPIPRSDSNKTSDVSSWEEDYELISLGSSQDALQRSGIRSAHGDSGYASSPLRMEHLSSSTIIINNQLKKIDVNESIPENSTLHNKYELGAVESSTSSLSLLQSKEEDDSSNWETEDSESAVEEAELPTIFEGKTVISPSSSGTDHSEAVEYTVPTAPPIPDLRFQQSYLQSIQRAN
In words: co-IP.

The target of test [7] is T8, DNA-binding domain (BD)-fused AIM-mutated Atg43 aa 1-184 (S. pombe) (UniProt O13709).
T8 sequence: T7 sequence with Y28A, I31A
Description: two-hybrid.

Test [8] deals with T9, DNA-binding domain (BD)-fused AIM-mutated Atg43 aa 1-40 (S. pombe) (UniProt O13709).
T9 sequence: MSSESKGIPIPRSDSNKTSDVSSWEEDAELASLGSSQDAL
Description: two-hybrid.

The target in test [9] is T10, DNA-binding domain (BD)-fused Atg43 aa 1-40 (S. pombe) (UniProt O13709).
T10 sequence: T9 sequence with A28Y, A31I
Description: two-hybrid.

In test [10] the target is T11, DNA-binding domain (BD)-fused Atg43 aa 1-184 (S. pombe) (UniProt O13709).
T11 sequence: T7 sequence
In words: two-hybrid.

B1: FLAG-tagged Atg43 (full-length) (protein, UniProt O13709 1-244)
chain: T4 sequence
As for B1, the binding entry in test [1], in test [2] and in [3] was “binds” in each case.

B2: GFP-fused Mim2 (protein, UniProt G2TRP0 1-72)
chain: T1 sequence
As to B2, the binding result in [4] was “binds”; in the test with FLAG-Mim1 (S. pombe) it was “binds”; in test [5], “binds”; in test [6], “no binding”.

B3: FLAG-Mim1 (protein, UniProt Q9C1W7 1-71)
chain: T2 sequence
For the molecule B3, in test [1], the binding result is on record as “binds”.

B4: GFP-fused Mim1 (protein, UniProt Q9C1W7 1-71)
chain: T2 sequence
Consider B4, for which the binding entry in test [4] is “binds”.

B5: activation domain (AD)-fused Atg8 (protein, UniProt O94272 1-121)
chain: MRSQFKDDFSFEKRKTESQRIREKYPDRIPVICEKVDKSDIAAIDKKKYLVPSDLTVGQFVYVIRKRIKLSPEKAIFIFIDEILPPTAALMSTIYEEHKSEDGFLYITYSGENTFGTVFPF
For B5, the binding result in [7] is “no binding”; in [8], “no binding”; in test [9], “binds”; in [10], “binds”.
